PubChem BioAssay AID1224828 | NIAID – 2016
Assay: 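Find genes required for NF-kappaB p65 moving into the nucleus after LPS in mouse macrophages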 (primary screen). Cell system: mouse RAW264.7 G9 macrophage reporter cells (GFP-p65, Tnf promoter-mCherry). Knock-down reagent: siRNA pool against mouse genes, 100 nM. Duration: 2 days siRNA transfection, then 40 min LPS before fixation. Challenge: LPS (Salmonella minnesota R595) at 10 ng/ml. Detection: 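Imaged p65 nuclear translocation ratio, normalised to the plate median, converted to robust z-scores and averaged across two replicates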. Direction: p65 translocation robust z-score: higher = more nuclear NF-kappaB p65 after LPS than the plate median; nuclear/cytoplasmic p65 ratio: higher = more nuclear NF-kappaB p65. Call rule: 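Active if robust z is above 3.3 (negative regulators) or below -1.56, the Tlr4 control median (positive regulators); activity score 50 or more; control wells not called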. Calls: active = hit (p65 shift raised or lowered); inactive = no clear change.
In all, the deposit lists about 17,000 reagents; shown is a part drawn at random. Of all reagents, 762 (4.5%) got an active call. 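Active calls include both raised and lowered p65 entry, mostly lowered; wells with fewer than 50 cells lack a z-score.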 The raw values are shown without normalisation. Unmarked entries are inactive. Reagent sequences are not shown.

target gene | p65 translocation robust z-score | nuclear/cytoplasmic p65 ratio, rep 1 | nuclear/cytoplasmic p65 ratio, rep 2 | low cell count flag
BC051665 | -0.1 | 1.62 | 1.58 | enough cells to score
Or4a70 | 0.77 | 1.77 | 1.49 | enough cells to score
Cep19 | 0.49 | 1.37 | 1.55 | enough cells to score
Prpf40a | 1.15 | 1.79 | 1.59 | enough cells to score
Rpap2 | -0.78 | 1.5 | 1.39 | enough cells to score
Gng10 | 1.09 | 1.78 | 1.72 | enough cells to score
C130073F10Rik | – | 1.26 | 1.49 | fewer than 50 cells per well; well left out of scoring
Scly | – | 1.34 | 1.29 | fewer than 50 cells per well; well left out of scoring
Mms22l | 0.1 | 1.68 | 1.41 | enough cells to score
Ciao3 | -0.37 | 1.72 | 1.54 | enough cells to score
Cela1 | – | 1.31 | 1.17 | fewer than 50 cells per well; well left out of scoring
Or11g25 | – | 1.37 | 1.18 | fewer than 50 cells per well; well left out of scoring
Bin3 | -2.48 (active) | 1.08 | 1.18 | enough cells to score
Tsr3 | 2.01 | 1.69 | 1.85 | enough cells to score
Ccdc125 | – | 1.17 | 1.01 | fewer than 50 cells per well; well left out of scoring
Rhov | -0.04 | 1.49 | 1.53 | enough cells to score
Gask1a | 0.32 | 1.68 | 1.8 | enough cells to score
Vps35l | -0.07 | 1.43 | 1.52 | enough cells to score
Psenen | 0.85 | 1.54 | 1.5 | enough cells to score
Chrna7 | -0.23 | 1.49 | 1.3 | enough cells to score
Or52z14 | -0.14 | 1.45 | 1.25 | enough cells to score
Hgf | 0.88 | 1.52 | 1.52 | enough cells to score
Or5b12 | 0.41 | 1.7 | 1.45 | enough cells to score
Zfp536 | 1.82 | 1.24 | 1.45 | enough cells to score
Ighmbp2 | -1.07 | 1.19 | 1.25 | enough cells to score
Clk1 | 1.54 | 1.75 | 2.12 | enough cells to score
Dennd6b | – | 1.55 | 1.22 | fewer than 50 cells per well; well left out of scoring
Vps25 | -0.25 | 1.42 | 1.88 | enough cells to score
Zfp352 | 0.79 | 1.61 | 1.26 | enough cells to score
Or4l15 | – | 1.8 | 1.3 | fewer than 50 cells per well; well left out of scoring
Ndrg3 | -0.48 | 1.76 | 1.47 | enough cells to score
Fbxo24 | -0.01 | 1.32 | 1.5 | enough cells to score
Ptgs1 | 1.26 | 1.59 | 1.65 | enough cells to score
Or4f60 | 0.82 | 1.73 | 1.6 | enough cells to score
Gfm2 | -0.04 | 1.45 | 1.44 | enough cells to score
Pde1c | -0.58 | 1.33 | 1.38 | enough cells to score
Apool | -1.65 (active) | 1.22 | 1.29 | enough cells to score
Sun1 | – | 1.36 | 1.09 | fewer than 50 cells per well; well left out of scoring
Nhp2 | – | 1.3 | 0 | fewer than 50 cells per well; well left out of scoring
Syt17 | -0.02 | 1.42 | 1.53 | enough cells to score
Alg6 | -0.2 | 1.59 | 1.58 | enough cells to score
Il23a | – | 1.3 | 1.31 | fewer than 50 cells per well; well left out of scoring
Zmat5 | -0.88 | 1.19 | 1.34 | enough cells to score
Ninj1 | 1 | 1.65 | 1.48 | enough cells to score
Tff3 | -0.46 | 1.36 | 1.1 | enough cells to score
C1qtnf5 | 3.16 | 2.05 | 1.77 | enough cells to score
Dock2 | -1.21 | 1.33 | 1.21 | enough cells to score
Ube3c | 0.51 | 1.59 | 1.56 | enough cells to score
Gng2 | 1.3 | 1.78 | 1.79 | enough cells to score
Tas2r115 | -0.05 | 1.36 | 1.07 | enough cells to score
Qsox1 | 0.25 | 1.53 | 1.57 | enough cells to score
Mmp28 | -1.12 | 1.3 | 1.19 | enough cells to score
Cntn6 | 0.48 | 1.66 | 1.32 | enough cells to score
Mis12 | – | 1.23 | 1.4 | fewer than 50 cells per well; well left out of scoring
Pth1r | 1.06 | 1.59 | 1.81 | enough cells to score
Phex | -0.23 | 1.51 | 1.34 | enough cells to score
Arl2 | -0.21 | 1.67 | 1.5 | enough cells to score
Cacng7 | 1.1 | 1.81 | 1.9 | enough cells to score
Hdgfl1 | -0.26 | 1.31 | 1.22 | enough cells to score

Entries listed so far whose target name begins with G or g (4):
target gene | p65 translocation robust z-score | nuclear/cytoplasmic p65 ratio, rep 1 | nuclear/cytoplasmic p65 ratio, rep 2 | low cell count flag
Gng10 | 1.09 | 1.78 | 1.72 | enough cells to score
Gask1a | 0.32 | 1.68 | 1.8 | enough cells to score
Gfm2 | -0.04 | 1.45 | 1.44 | enough cells to score
Gng2 | 1.3 | 1.78 | 1.79 | enough cells to score
